Data from PubChem BioAssay AID493014 (National Center for Advancing Translational Sciences (NCATS), 2011).
About 170 (0.05%) of roughly 340,000 compounds were called active. The inconclusive results got no clear call from the source; some entries with a clear call stand among them for comparison. Calls follow the shape of the dose curve; as a rule, active = well fitted inhibition curve with a large enough effect in the signal ratio, with a control signal flat (not every such curve was filed as active); inconclusive = small, poorly fitted or top-dose-only effect, or effect the other way, or a change in a side signal; inactive = flat fitted curve, though single readings scatter; the % refers to the signal ratio. Potencies of inconclusive entries are doubtful fits and often do not repeat.
Potency is read from the fitted curve at half-maximal effect.

Assay: qHTS Assay to Find Inhibitors of Chronic Active B-Cell Receptor Signaling;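 as to activity change, negative = inhibition: plate controls were basal doxycycline-induced cells for no effect and cells given 10 µM MG132 for full effect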
Details: ABC-DLBCL IkBa-CBG/CBR reporter, luminescence ratio (green luciferase fused to IkBa over red control in TMD8 lymphoma cells), 4 h; activity change, negative = inhibition: at 46.1 µM (top of the series)
Procedure, shortened: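 Cell line TMD8 (human ABC DLBCL), stably expressing tet-inducible CBG68-IkBa fusion and CBR; IMDM/0.5% FBS; cpd up to 46 uM; dox induction, 4 h, 37C/5% CO2; dual luminescence; green/red ratio; MG132 control.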
In the case of Cc1cccc(C)c1OCCCCn1cnc2ccccc2c1=O, the activity change, negative = inhibition is reported as inconclusive: 7.42%.
With O=C(NCCCN1CCOCC1)c1sc2ccccc2c1Cl the activity change, negative = inhibition was inconclusive: 20.2%.
With N#C/C(=C/c1ccc2c(c1)OCO2)C(=O)Nc1ccc(O)cc1 the Potency was inconclusive: 28.2 µM [falling, partial curve].
For COc1ccccc1OCCC(=O)OCC(=O)Nc1ccc(S(=O)(=O)N2CCOCC2)cc1, the activity change, negative = inhibition was inconclusive: -9.32%.
With CCOc1c(Br)cc(C2CC(=O)Nc3cc(OC)c(OC)cc32)cc1OC (stereo not drawn) the Potency was inconclusive: 10 µM [falling, partial curve].
With CC(C)NC(=O)C1CCN(C2CCN(Cc3nc4ccccc4s3)CC2)CC1 the Potency was inconclusive: 0.1 µM [falling, full curve, poor fit].
In the case of CNc1nc(Cl)c(SC)c(N2CCOCC2)n1, the activity change, negative = inhibition is reported as inconclusive: 1.18%.
In the case of CC(=O)c1cccc(NC(=O)CN2CCN(Cc3ccccc3)CC2)c1, the activity change, negative = inhibition is reported as inconclusive: 2.3%.
For Cc1cc([N+](=O)[O-])ccc1NC(=O)c1csc(C)c1C, the activity change, negative = inhibition was “inactive”.
With O=C(Nc1nc2c(s1)CN(Cc1ccccc1)CC2)C1CCCC1 the activity change, negative = inhibition was inconclusive: -1.49%.
For Cc1ccc(S(=O)(=O)NNC(=O)c2snnc2C)cc1, the activity change, negative = inhibition was inconclusive: -11.9%.
For O=C(NCC(c1ccco1)N1CCCC1)c1ccccc1F (stereo not drawn), the activity change, negative = inhibition was “inactive”.
For O=C(Nc1ccc(F)cc1F)N1CCN(c2ncccn2)CC1, the Potency was inconclusive: 14.6 µM [falling, partial curve].
For CN(C)C(=O)CCc1nc(-c2ccc(C(C)(C)C)cc2)no1, the Potency was inconclusive: 35.5 µM [falling, single point].
For COc1ccc(Cl)cc1NC(=O)C/C(C)=N/NC(=O)c1ccccc1Cl, the Potency was inconclusive: 25.1 µM [falling, partial curve].
In the case of C=CCN(c1ccccc1)S(=O)(=O)c1cc(C(=O)NC2=NCCS2)ccc1Cl, the activity change, negative = inhibition is reported as inconclusive: -0.441%.
For O=C(Cc1ccc(F)cc1)N1CCN(c2ccc([N+](=O)[O-])cc2)CC1, the activity change, negative = inhibition was “inactive”.
With CC(=O)Nc1cccc(C(=O)OC(C(=O)c2ccc(C)cc2)c2ccccc2)c1 (stereo not drawn) the Potency was inconclusive: 35.5 µM [rising, partial curve, poor fit].
For O=C(CNC(=O)c1ccco1)N/N=C/c1ccc(O)c([N+](=O)[O-])c1, the activity change, negative = inhibition was inconclusive: -1.75%.
With CCN1CCN(c2nc(-c3ccccc3Cl)nc3ccccc23)CC1 the activity change, negative = inhibition was “inactive”.
In the case of Oc1ccccc1Cc1c(O)ccc2ccccc12, the activity change, negative = inhibition is reported as “inactive”.
For CN(C)CCCN(C(=O)c1ccc2c(c1)OCCO2)c1nc2cc3c(cc2s1)OCO3, the activity change, negative = inhibition was inconclusive: -10.6%.
For O=C(CSc1ccc(Cl)cc1)Nc1cccc(-c2nnc(-c3ccco3)o2)c1, the activity change, negative = inhibition was “inactive”.
For O=C(c1ccc2[nH]c(=O)c(=O)[nH]c2c1)N1CCc2ccccc21, the activity change, negative = inhibition was inconclusive: -3.69%.
With COC(=O)c1ccccc1NC(=O)NCCc1ccccc1OC the Potency was inconclusive: 15.8 µM [falling, single point].
In the case of O=C(CCN1C(=O)c2ccccc2C1=O)NC(=S)Nc1cccc(Cl)c1, the Potency is reported as inconclusive: 17.8 µM [falling, partial curve].
For S=C(NCCc1ccccc1)NCc1cccs1, the activity change, negative = inhibition was inconclusive: -12.9%.
For CN1CCN(c2ccc(NC(=O)c3ccc(-c4ccc(Br)cc4)o3)cc2)CC1, the activity change, negative = inhibition was inconclusive: -14.3%.
With COC(=O)N1C(=O)[C@](c2ccccc2)(C(C)C)N1C(=O)OC the activity change, negative = inhibition was inconclusive: -2.1%.
With COc1cc2c(cc1OC)CN(C(=O)c1ccc(S(=O)(=O)N(C)c3ccccc3)cc1)CC2 the Potency was inconclusive: 35.5 µM [rising, partial curve, poor fit].
For COC(=O)c1ccc(C2CC(=O)Nc3cc(OC)c(OC)c(OC)c32)cc1 (stereo not drawn), the Potency was inconclusive: 20.6 µM [falling, single point].
In the case of O=C(COC(=O)/C=C/c1ccc(F)cc1)Nc1cc(C(F)(F)F)ccc1N1CCOCC1, the activity change, negative = inhibition is reported as inconclusive: -0.132%.
With CC(=O)Nc1ccc(/C=C/c2ccc3cccc([N+](=O)[O-])c3n2)cc1 the activity change, negative = inhibition was inconclusive: -2.58%.
For CN1/C(=C\C(=O)C(F)F)C(C)(C)c2ccccc21, the activity change, negative = inhibition was “inactive”.
With CCC(=O)NC(c1ccc(C)cc1)c1ccc2cccnc2c1O (stereo not drawn) the activity change, negative = inhibition was inconclusive: -1.01%.
For Cc1ccc(C(=O)NC(NCc2ccccc2)C(Cl)(Cl)Cl)cc1 (stereo not drawn), the activity change, negative = inhibition was inconclusive: 1.7%.
For CCCCOc1ccc(S(=O)(=O)N2CCN(c3ccc(N4CCN(CC)CC4)nn3)CC2)cc1, the Potency was inconclusive: 18.4 µM [rising, partial curve].
With Cc1cc(/C(N)=N/OC(=O)c2ccccc2Cl)no1 the activity change, negative = inhibition was inconclusive: -27.3%.
In the case of CSc1cccc(NC(=S)N(Cc2ccc(C)cc2)Cc2cccnc2)c1, the activity change, negative = inhibition is reported as inconclusive: 19.9%.
In the case of COc1cc(OC)cc(C(=O)NC(C(=O)NNC(=O)c2ccc(C)cc2)C(C)C)c1 (stereo not drawn), the activity change, negative = inhibition is reported as inconclusive: 7.47%.
In the case of Cc1ccc(S(=O)(=O)N(C)CCCC(=O)NCc2ccc3c(c2)OCO3)cc1, the Potency is reported as inconclusive: 23.1 µM [falling, single point].
With CCOC(=O)c1nn(-c2ccc(F)cc2)c(=O)cc1OCC(=O)N1CCN(c2ccccc2)CC1 the activity change, negative = inhibition was “inactive”.
In the case of C#Cc1ccc([C@H]2C=C(C(=O)O)O[C@@H](OCc3ccc(CO)cc3)C2)cc1, the activity change, negative = inhibition is reported as inconclusive: -2.3%.
With Cc1cc(N)nc2nc(C(F)(F)F)nn12 the activity change, negative = inhibition was inconclusive: -9.05%.
With Cc1nn2c(-c3ccc(Cl)cc3)ccnc2c1-c1ccccc1 the activity change, negative = inhibition was inconclusive: 4.72%.
In the case of CCC(=O)Nc1ccc(NC(=O)CSc2nnnn2C2CCCC2)cc1C, the activity change, negative = inhibition is reported as “inactive”.
In the case of Cc1ccccc1C(=O)Nc1ccc(Br)c(C)n1, the activity change, negative = inhibition is reported as inconclusive: -11.3%.
For CCN(CC)S(=O)(=O)c1ccc2c(c1)N(CC(=O)NCCCN1CCN(c3ccc(OC)cc3)CC1)C(=O)CO2, the activity change, negative = inhibition was inconclusive: 11.5%.
With Oc1oc(-c2ccccc2)nc1C=Nc1cccc2ccccc12 the Potency was inconclusive: 29.1 µM [falling, single point].
For CCCCCn1c(=O)[nH]c2cc(C(=O)NCCN(CC)CC)ccc2c1=O, the activity change, negative = inhibition was inconclusive: 4.71%.
In the case of O=C(c1ccco1)N1CCN(c2nc(C3CC3)nc3sc4c(c23)CCCC4)CC1, the activity change, negative = inhibition is reported as inconclusive: 4.97%.
For CCCN=C1N(C)C[C@@H]2[C@@H]3C(=O)N(C)C(=O)[C@@H]3[C@](Cc3ccccc3)(C(=O)OC)N12, the activity change, negative = inhibition was “inactive”.
With CCC(C)N1C(=O)N(c2cccc(Cl)c2)C(C)(O)CC1(C)C (stereo not drawn) the activity change, negative = inhibition was “inactive”.
For O=C(CSc1nc2ccccc2s1)Nc1cc(S(=O)(=O)N2CCOCC2)ccc1Cl, the activity change, negative = inhibition was inconclusive: 12.2%.
In the case of O=C1N/C(=N\N=C\c2cccs2)SC1Cc1ccc(Cl)c(Cl)c1 (stereo not drawn), the Potency is reported as inconclusive: 11.2 µM [falling, partial curve].
For COc1ccc(N=c2oc3c(OC)cccc3cc2C(=O)NCc2ccco2)c(OC)c1, the activity change, negative = inhibition was inconclusive: -0.0443%.
For Cc1ccc(C(=O)N[C@H](C(=O)Nc2ccc(F)cc2)C(C)C)cc1, the activity change, negative = inhibition was inconclusive: -18.9%.
With CCN1CCCC1CNCc1cccc(OC)c1OCc1ccccc1F (stereo not drawn) the activity change, negative = inhibition was “inactive”.
With CCn1c(=O)cc(SCC(=O)NCCCN2CCC(C)CC2)c2ccccc21 the Potency was inconclusive: 17.8 µM [falling, partial curve, poor fit].
With CC(C)CCNC(=O)NC(=O)COc1ccccc1C#N the Potency was inconclusive: 29.1 µM [falling, single point].
In the case of CCn1cnc2c(Nc3cc(F)cc(F)c3)nc(C#N)nc21, the activity change, negative = inhibition is reported as inconclusive: 12.4%.
With CCC(C)(C)n1nnnc1CN(Cc1cccs1)Cc1cc2cc(OC)ccc2[nH]c1=O the activity change, negative = inhibition was “inactive”.
For CSc1nc2ccccc2s1, the activity change, negative = inhibition was inconclusive: 6.94%.
For CCOc1ccc(-n2c(-c3ccccc3)c[n+]3c2CCC3)cc1, the activity change, negative = inhibition was “inactive”.
For Cc1ccc(NC(C#N)c2ccccc2OCc2ccccc2)cc1 (stereo not drawn), the Potency was inconclusive: 31.6 µM [falling, single point].
In the case of CCOC(=O)N1CCN(C(=O)c2c(O)c3cccc4c3n(c2=O)CC4)CC1, the activity change, negative = inhibition is reported as inconclusive: -9.07%.
In the case of COc1ccccc1NC(=S)N1CCC(c2nc3cc(C)c(C)cc3[nH]2)CC1, the activity change, negative = inhibition is reported as “inactive”.
In the case of CCOC(=O)N1CCN(Cc2nc3cc(NC(=O)c4ccco4)ccc3n2C)CC1, the activity change, negative = inhibition is reported as “inactive”.
In the case of Cc1ccc(NC(=O)Cc2ccccc2)c(C)c1, the activity change, negative = inhibition is reported as inconclusive: 7.63%.
For CCC(CC)C(=O)Oc1c(Sc2ccccc2[N+](=O)[O-])c(C)nn1C(C)(C)C, the Potency was inconclusive: 23.1 µM [rising, single point].
For CS(=O)(=O)NCCCNc1ccc(Cl)cc1[N+](=O)[O-], the activity change, negative = inhibition was inconclusive: 11%.
In the case of O=C(O)c1ccc(-c2ccccn2)s1, the Potency is reported as inconclusive: 11.2 µM [falling, partial curve, poor fit].
For N/C(=N\OC(=O)c1ccccc1Cl)c1cccnc1, the Potency was inconclusive: 29.1 µM [falling, single point].
For O=C(O)c1cccc2c(/C=N/Nc3ccccn3)c[nH]c12, the activity change, negative = inhibition was inconclusive: 215%.
In the case of Cc1noc(C)c1COc1cccc(C(=O)OCC(=O)N2CC(=O)Nc3ccccc32)c1, the Potency is reported as inconclusive: 14.1 µM [falling, partial curve].
With COC(=O)C1OC(OC2CC[C@]3(C)C(CC[C@@]4(C)[C@@H]3CC=C3[C@@H]5CC(C)(C)CC[C@]5(C(=O)OC5OC(CO)C(O)C(O)C5O)CC[C@]34C)C2(C)C)C(O)C(O)C1O[C@H]1OCC(O)C(O)C1O (stereo partly drawn) the activity change, negative = inhibition was inconclusive: -12.9%.
In the case of COc1ccc(N(C)S(=O)(=O)c2cccc(C(=O)Nc3ccc(N4CCOCC4)cc3)c2)cc1, the Potency is reported as inconclusive: 20.6 µM [falling, partial curve, poor fit].
For CCCCCn1c(=O)[nH]c2cc(C(=O)N3CCN(CC)CC3)ccc2c1=O, the activity change, negative = inhibition was inconclusive: 19.9%.
